Experimental data from the supplement of paper PMC12067093, “Discovery and optimisation of a covalent ligand for TRIM25 and its application to targeted protein ubiquitination” (Chemical Science, 2025).
The other results are listed elsewhere or left out.

These targets were tested with Cc1cc(ccc1-c1ccccc1)C(=O)N1CCCN(CC1)C(=O)CCl [compound 10] (assay: probe-labelled cysteine peptide fold change vs DMSO (competition) (log2 fold change); higher = less target engagement (more negative = stronger competition)). Conditions: 10 µM; THP-1; incubation time: 4 h.
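Further: competitive profiling in live THP-1 cells: cysteine peptides tagged with an iodoacetamide desthiobiotin (IA-DTB) probe, intensity after compound treatment relative to DMSO-treated cells.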

Q: Which “probe-labelled cysteine peptide fold change” value does the source give for “CHD3_Q12873_1464_HLCEPGADGSETFADGVPR (UniProt Q12873)” here?
A: The value was -0.22.

Q: With “CHST11_Q9NPF2_89_DQVTDTCR (UniProt Q9NPF2)” as the target, how does the “probe-labelled cysteine peptide fold change” value read?
A: Its value is -0.197.

Q: How did the “probe-labelled cysteine peptide fold change” value turn out when “CLTCL1_P53675_736_YIQAACK (UniProt P53675)” was run?
A: Its value is 0.0678.

Q: Which “probe-labelled cysteine peptide fold change” value does the source give for “CHORDC1_Q9UHD1_59_RTTDFSDFLSIVGCTK (UniProt Q9UHD1)” here?
A: The value was -0.167.

Q: Which “probe-labelled cysteine peptide fold change” value does the source give for “CIP2A_Q8TCG1_6_MDSTACLK (UniProt Q8TCG1)” here?
A: The value was -0.0871.

Q: For “CLTCL1_P53675_778_LTDQLPLIIVCDR (UniProt P53675)”, which “probe-labelled cysteine peptide fold change” value is on record?
A: Its value is 0.174.

Q: For “CHD8_Q9HCK8_1902_EQVLCHPLLEDR (UniProt Q9HCK8)”, which “probe-labelled cysteine peptide fold change” value is on record?
A: The value was -0.0868.

Q: How did the “probe-labelled cysteine peptide fold change” value turn out when “CIAO3_Q9H6Q4_270_DVDCVLTTGEVFR (UniProt Q9H6Q4)” was run?
A: The value was -0.391.

Q: With “CIAO3_Q9H6Q4_246_IYHVTVMPCYDK (UniProt Q9H6Q4)” as the target, how does the “probe-labelled cysteine peptide fold change” value read?
A: Its value is -0.227.

Q: How did the “probe-labelled cysteine peptide fold change” value turn out when “CMIP_Q8IY22_455_TLGCYVEILK (UniProt Q8IY22)” was run?
A: The value was 0.249.

Q: With “CFL1_P23528_147_DRCTLAEK (UniProt P23528)” as the target, how does the “probe-labelled cysteine peptide fold change” value read?
A: Its value is -0.108.

Q: For “CHD8_Q9HCK8_680_NYSYLHCEWATISQLEK (UniProt Q9HCK8)”, which “probe-labelled cysteine peptide fold change” value is on record?
A: The value was 0.0935.

Q: With “CLEC11A_Q9Y240_177_LEGCLK (UniProt Q9Y240)” as the target, how does the “probe-labelled cysteine peptide fold change” value read?
A: Its value is -0.227.

Q: Which “probe-labelled cysteine peptide fold change” value does the source give for “CLASP1_Q7Z460_1423_AAEEAASTLASSIHPEQCIK (UniProt Q7Z460)” here?
A: The value was 0.0352.

Q: With “CHPF_Q8IZ52_266_MLLQQLRPHLEGCR (UniProt Q8IZ52)” as the target, how does the “probe-labelled cysteine peptide fold change” value read?
A: The value was 0.0374.

Q: With “CINP_Q9BW66_92_LCEELQATLDGLTK (UniProt Q9BW66)” as the target, how does the “probe-labelled cysteine peptide fold change” value read?
A: Its value is 0.291.

Q: For “CLASP2_O75122_129_SLLVAGAAQYDCFFQHLR (UniProt O75122)”, which “probe-labelled cysteine peptide fold change” value is on record?
A: The value was -0.366.

Q: Which “probe-labelled cysteine peptide fold change” value does the source give for “CLEC11A_Q9Y240_319_LYYVCEFPF (UniProt Q9Y240)” here?
A: The value was -0.333.

Q: With “CMIP_Q8IY22_363_NGCQQPCDR (UniProt Q8IY22)” as the target, how does the “probe-labelled cysteine peptide fold change” value read?
A: The value was -0.29.

Q: Which “probe-labelled cysteine peptide fold change” value does the source give for “CLUH_O75153_200_ERPLCPLQPQNR (UniProt O75153)” here?
A: Its value is -0.171.

Q: “CIAO1_O76071_271_TIYDIAWCQLTGALATACGDDAIR (UniProt O76071)” was tested. Which “probe-labelled cysteine peptide fold change” value did it give?
A: The value was 0.287.

Q: How did the “probe-labelled cysteine peptide fold change” value turn out when “CIAPIN1_Q6FI81_116_LCSALTLSGLVEVK (UniProt Q6FI81)” was run?
A: The value was -0.0551.

Q: How did the “probe-labelled cysteine peptide fold change” value turn out when “CLSTN1_O94985_261_ISIKPTCTPGWQGWNNR (UniProt O94985)” was run?
A: The value was -0.232.

Q: How did the “probe-labelled cysteine peptide fold change” value turn out when “CIAPIN1_Q6FI81_274_SACGNCYLGDAFR (UniProt Q6FI81)” was run?
A: Its value is -0.147.

Q: “CHI3L1_P36222_300_EAGTLAYYEICDFLR (UniProt P36222)” was tested. Which “probe-labelled cysteine peptide fold change” value did it give?
A: Its value is -0.118.

Q: “CHUK_O15111_30_LGTGGFGNVCLYQHR (UniProt O15111)” was tested. Which “probe-labelled cysteine peptide fold change” value did it give?
A: The value was 0.0193.

Q: For “CHD1L_Q86WJ1_123_FAPGLSCVTYAGDK (UniProt Q86WJ1)”, which “probe-labelled cysteine peptide fold change” value is on record?
A: Its value is 0.111.

Q: With “CMIP_Q8IY22_514_FAEDPRQEVHSCLLSVR (UniProt Q8IY22)” as the target, how does the “probe-labelled cysteine peptide fold change” value read?
A: The value was -0.0943.

Q: “CHD8_Q9HCK8_1116_EACHIIPHDFHLQAMVR (UniProt Q9HCK8)” was tested. Which “probe-labelled cysteine peptide fold change” value did it give?
A: Its value is 0.0841.

Q: “CLIC1_O00299_223_EEFASTCPDDEEIELAYEQVAK (UniProt O00299)” was tested. Which “probe-labelled cysteine peptide fold change” value did it give?
A: The value was -0.171.

Q: Which “probe-labelled cysteine peptide fold change” value does the source give for “CHD9_Q3L8U1_1257_FSKPDSDRFVFLLCTR (UniProt Q3L8U1)” here?
A: The value was 0.0548.

Q: Which “probe-labelled cysteine peptide fold change” value does the source give for “CHAMP1_Q96JM3_787_HLTHCQSR (UniProt Q96JM3)” here?
A: The value was 0.0546.

Q: For “CHD1L_Q86WJ1_123_FAPGLSCVTYAGDKEER (UniProt Q86WJ1)”, which “probe-labelled cysteine peptide fold change” value is on record?
A: Its value is -0.185.

Q: “CLTC_Q00610_1102_CNEPAVWSQLAK (UniProt Q00610)” was tested. Which “probe-labelled cysteine peptide fold change” value did it give?
A: Its value is 0.143.

Q: “CLIC4_Q9Y696_35_AGSDGESIGNCPFSQR (UniProt Q9Y696)” was tested. Which “probe-labelled cysteine peptide fold change” value did it give?
A: The value was -0.404.

Q: For “CLUH_O75153_88_TCFSLHLDGNVLDHFSELR (UniProt O75153)”, which “probe-labelled cysteine peptide fold change” value is on record?
A: The value was 0.161.

Q: With “CLTC_Q00610_1573_RECFGACLFTCYDLLRPDVVLETAWR (UniProt Q00610)” as the target, how does the “probe-labelled cysteine peptide fold change” value read?
A: Its value is 0.384.

Q: How did the “probe-labelled cysteine peptide fold change” value turn out when “CINP_Q9BW66_120_GICELENYHYGEESK (UniProt Q9BW66)” was run?
A: The value was 0.0309.
